No constants are given. Whether binding was seen depends on the method and setting. Some binding calls cover weakened binding; strength is not graded here.
Experiments:
[1] = biological target: TLR4/CD284 from baculovirus insect cells, Hölzel Diagnostik GmbH, 10146-H08B-100 (UniProt O00206); assay: fluorescence photometry of Ni-NTA magnetic agarose beads loaded with his-tagged TLR4; the bound peptide is displaced in the 2nd incubation by Alexa Fluor 488-labeled LPS
[2] = biological target: TLR4/CD284 from baculovirus insect cells, Hölzel Diagnostik GmbH, 10146-H08B-100 (UniProt O00206); assay: fluorescence on Ni-NTA magnetic agarose beads carrying his-tagged TLR4
[3] = biological target: TLR4/CD284 from baculovirus insect cells, Hölzel Diagnostik GmbH, 10146-H08B-100 (UniProt O00206); assay: fluorescence microscopy of Ni-NTA magnetic agarose beads carrying his-tagged TLR4

Protein sequences, listed by entry. Tags and fused reporters are not part of them. Lines headed by an entry give the natural chain unless they say otherwise; changes in a name come on top. Residues count along the entry.
UniProt O00206, residues 24-631: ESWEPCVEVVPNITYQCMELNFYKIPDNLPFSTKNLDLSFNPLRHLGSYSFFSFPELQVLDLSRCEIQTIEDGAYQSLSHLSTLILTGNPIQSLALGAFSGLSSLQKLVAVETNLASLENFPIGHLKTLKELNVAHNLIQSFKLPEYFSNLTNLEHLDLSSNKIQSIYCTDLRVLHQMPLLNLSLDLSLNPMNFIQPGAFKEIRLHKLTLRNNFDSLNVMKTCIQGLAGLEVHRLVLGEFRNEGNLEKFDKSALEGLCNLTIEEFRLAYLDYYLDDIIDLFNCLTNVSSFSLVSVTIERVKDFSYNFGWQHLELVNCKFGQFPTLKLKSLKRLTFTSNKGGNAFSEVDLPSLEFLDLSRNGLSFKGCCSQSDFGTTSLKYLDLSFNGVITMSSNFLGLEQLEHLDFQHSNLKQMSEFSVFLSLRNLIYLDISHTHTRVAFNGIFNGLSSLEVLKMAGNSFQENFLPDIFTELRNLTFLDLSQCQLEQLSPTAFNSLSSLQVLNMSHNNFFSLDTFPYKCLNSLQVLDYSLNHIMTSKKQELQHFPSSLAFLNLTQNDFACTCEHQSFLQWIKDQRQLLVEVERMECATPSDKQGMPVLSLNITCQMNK

binding [1]: binds | binding [2]: binds | binding [3]: binds
Binder: GLLHIFYIPRRDLKQLYFNL (TAMRA label (position not given)) [TAMRA-labeled … peptide]
